Results deposited as PubChem BioAssay AID1053208 (Peter MacCallum Cancer Centre, 2014).
The deposit covers about 17,000 reagents; shown is a random part of them. Of all reagents, 788 (4.7%) got an active call. 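Calls rest on z-score classes alone; an extra cut-off of viability at most 70% of control was not applied to them.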 A number with no mark means an inactive call.

- Purpose: 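Synthetic lethal interactions between gene loss and doxorubicin in osteosarcoma cells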 (primary screen)
- System: mouse osteosarcoma cells, early-passage culture from an engineered mouse model of fibroblastic bone tumour
- Reagents: siRNA pool against mouse genes, 40 nM
- Time to read-out: about 120 h (48 h before drug, then 72 h with drug)
- Challenge: doxorubicin 100 nM for 72 h, roughly 30-40% inhibitory dose
- Measurement: 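Viability read as ATP luminescence after 72 h of 100 nM doxorubicin or none, duplicate wells averaged, scaled to non-targeting siRNA, then expressed as robust z-scores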
- Reading the numbers: viability z-score with doxorubicin and doxorubicin viability vs non-targeting: higher = more viable cells under doxorubicin; viability z-score without drug: higher = more viable cells with knock-down alone; z-score of drug to no-drug ratio: higher = less drug sensitisation by knock-down
- Rule for the call: 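Called active if knock-down leaves viability unchanged without drug (z within -2 to 2) but lowers it with doxorubicin (z at or under -2)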

The first 4 entries, ahead of the listing:
no.	target gene	combined z-score class	viability z-score with doxorubicin	viability z-score without drug	z-score of drug to no-drug ratio	doxorubicin viability vs non-targeting
1	Rhof	no change with or without drug	0.11	0.17	0.11	0.95
2	Epx	no change with or without drug	-0.22	0.67	-0.56	0.92
3	Mios	no change with or without drug	1.46	-1.18	2.7	1.07
4	Shc4	no change with or without drug	0	0.34	-0.11	0.94

The list itself, from the start:
no.	target gene	combined z-score class	viability z-score with doxorubicin	viability z-score without drug	z-score of drug to no-drug ratio	doxorubicin viability vs non-targeting
1	Rhof	no change with or without drug	0.11	0.17	0.11	0.95
2	Epx	no change with or without drug	-0.22	0.67	-0.56	0.92
3	Mios	no change with or without drug	1.46	-1.18	2.7	1.07
4	Shc4	no change with or without drug	0	0.34	-0.11	0.94
5	Nfyc	no change with or without drug	1.12	-0.34	1.57	1.04
6	Sh3bgrl	no change with or without drug	0	-1.35	1.12	0.94
7	Glrx	no change with or without drug	0.45	-1.35	1.69	0.98
8	Fam184b	no change with or without drug	0.45	0.84	0	0.98
9	Serpinf2	high cell count without drug only	1.35	2.02	0.11	1.06
10	Serpine1	no change with or without drug	-0.45	0.51	-0.67	0.9
11	Nsd1	no change with or without drug	0.9	0.67	0.56	1.02
12	Mrrf	no change with or without drug	-0.67	-0.17	-0.45	0.88
13	Adamtsl2	no change with or without drug	0.9	0	1.01	1.02
14	Nkrf	no change with or without drug	0	1.52	-0.9	0.94
15	Plpp1	no change with or without drug	1.57	1.18	0.9	1.08
16	Or4c120	high cell count without drug only	1.12	2.19	-0.22	1.04
17	Nkx2-9	no change with or without drug	1.35	0.84	0.9	1.06
18	Twnk	no change with or without drug	0	-0.51	0.45	0.94
19	Or4b12	no change with or without drug	-1.01	-1.18	-0.11	0.85
20	Zfyve21	no change with or without drug	-0.9	-0.51	-0.56	0.86
21	Pdk1	low cell count without drug only	-1.57	-2.19	0	0.8
22	Bhlhe22	no change with or without drug	0.22	-0.17	0.45	0.96
23	Jagn1	no change with or without drug	0.22	-0.17	0.45	0.96
24	Cacng8	no change with or without drug	-0.34	0.84	-0.79	0.91
25	Cdca5	no change with or without drug	1.35	0.17	1.35	1.06
26	Nkap	no change with or without drug	1.24	1.18	0.56	1.05
27	Xpo6	no change with or without drug	1.69	-1.01	2.7	1.09
28	Rbmy	no change with or without drug	0.22	-0.17	0.45	0.96
29	Gpaa1	no change with or without drug	0.56	0.84	0.11	0.99
30	Eps8	no change with or without drug	-0.9	0	-0.79	0.86
31	Aff3	no change with or without drug	-0.22	-0.84	0.45	0.92
32	Oprd1	no change with or without drug	-0.67	-0.67	-0.11	0.88
33	Or7a39	low cell count without drug only	-1.35	-3.2	1.12	0.82
34	Mal	low cell count with and without drug	-3.15	-2.53	-1.8	0.66
35	Dll3	no change with or without drug	1.46	-0.17	1.8	1.07
36	Rhbdl3	no change with or without drug	1.35	-0.17	1.69	1.06
37	Nectin1	no change with or without drug	-0.45	-1.18	0.45	0.9
38	Gstm2	no change with or without drug	0.45	-0.17	0.67	0.98
39	Cnn1	low cell count with doxorubicin only (active)	-3.04	-0.67	-2.7	0.67
40	Zswim3	no change with or without drug	1.35	-0.34	1.8	1.06
41	Taf15	no change with or without drug	0.11	0.51	-0.11	0.95
42	Ddah1	no change with or without drug	1.46	0.17	1.46	1.07
43	Acox2	no change with or without drug	-1.12	-0.51	-0.79	0.84
44	Pias4	no change with or without drug	0	-0.34	0.34	0.94
45	Muc19	no change with or without drug	-0.67	-0.84	0	0.88
46	Fastkd2	no change with or without drug	0.67	-0.17	0.9	1
47	Mnx1	no change with or without drug	0.9	-0.84	1.69	1.02
48	Atp1a1	no change with or without drug	-0.45	-1.18	0.45	0.9
49	Zfp940	no change with or without drug	0.11	-0.17	0.34	0.95
50	Naip2	no change with or without drug	-0.22	-0.51	0.22	0.92
